In patent US20030078221:
For some of these results: Construct, isoform or probe ends are uncertain for at least one entry.

Chains of the proteins cited; added tags and fusions are not shown. Chains listed by the source or under a name are the forms on record and can include a tag or linker.
Complement C5 (Homo sapiens), one chain, as listed by the source, chain 2 of 2: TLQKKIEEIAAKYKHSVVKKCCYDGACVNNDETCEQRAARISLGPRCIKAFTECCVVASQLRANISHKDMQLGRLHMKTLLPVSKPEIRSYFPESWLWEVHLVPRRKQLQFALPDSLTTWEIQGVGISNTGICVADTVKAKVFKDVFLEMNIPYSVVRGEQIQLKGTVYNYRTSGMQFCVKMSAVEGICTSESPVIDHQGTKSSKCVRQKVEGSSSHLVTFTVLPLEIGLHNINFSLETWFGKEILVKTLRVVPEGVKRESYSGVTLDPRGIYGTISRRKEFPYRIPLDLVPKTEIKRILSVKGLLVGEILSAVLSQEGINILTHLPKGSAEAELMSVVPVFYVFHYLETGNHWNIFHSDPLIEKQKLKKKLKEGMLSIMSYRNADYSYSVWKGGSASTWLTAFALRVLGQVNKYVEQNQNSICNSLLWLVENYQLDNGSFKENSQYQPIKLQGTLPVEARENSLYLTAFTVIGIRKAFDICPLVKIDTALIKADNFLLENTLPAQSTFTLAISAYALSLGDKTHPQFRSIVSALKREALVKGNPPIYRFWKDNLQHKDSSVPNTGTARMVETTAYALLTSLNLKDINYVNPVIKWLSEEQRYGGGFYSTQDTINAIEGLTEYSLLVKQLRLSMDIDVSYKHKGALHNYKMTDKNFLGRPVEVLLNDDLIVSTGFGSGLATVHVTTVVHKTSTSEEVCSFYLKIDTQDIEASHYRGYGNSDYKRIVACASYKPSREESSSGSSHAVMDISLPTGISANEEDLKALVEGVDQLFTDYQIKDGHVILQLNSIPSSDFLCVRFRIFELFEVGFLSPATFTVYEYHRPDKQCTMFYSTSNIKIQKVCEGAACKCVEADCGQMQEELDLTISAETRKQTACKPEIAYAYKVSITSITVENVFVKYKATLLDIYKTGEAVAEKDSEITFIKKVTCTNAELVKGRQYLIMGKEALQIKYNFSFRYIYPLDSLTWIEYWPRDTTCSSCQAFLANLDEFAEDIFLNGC
Complement C3 (Homo sapiens), one chain, as listed by the source, chain 1 of 2: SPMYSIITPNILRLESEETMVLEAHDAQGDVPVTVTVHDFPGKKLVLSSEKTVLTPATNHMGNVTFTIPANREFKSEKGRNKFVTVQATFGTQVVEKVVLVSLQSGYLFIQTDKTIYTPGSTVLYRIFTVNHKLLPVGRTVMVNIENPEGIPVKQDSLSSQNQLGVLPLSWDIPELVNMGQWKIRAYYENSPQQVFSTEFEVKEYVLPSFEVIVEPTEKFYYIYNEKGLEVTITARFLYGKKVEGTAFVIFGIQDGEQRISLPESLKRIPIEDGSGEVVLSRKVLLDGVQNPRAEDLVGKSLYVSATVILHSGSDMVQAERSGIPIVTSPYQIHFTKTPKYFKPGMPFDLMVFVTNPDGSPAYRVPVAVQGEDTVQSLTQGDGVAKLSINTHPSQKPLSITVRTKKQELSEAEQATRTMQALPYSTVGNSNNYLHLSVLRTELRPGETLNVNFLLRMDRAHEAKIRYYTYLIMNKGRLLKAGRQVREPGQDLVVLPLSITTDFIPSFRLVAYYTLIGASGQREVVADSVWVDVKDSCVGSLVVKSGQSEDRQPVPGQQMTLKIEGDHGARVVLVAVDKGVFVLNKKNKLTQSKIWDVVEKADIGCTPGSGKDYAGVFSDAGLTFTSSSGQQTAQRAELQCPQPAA

What follows are sequences tested on Complement C3 (Homo sapiens) (assay: SELEX). Conditions: 2'-F pyrimidines; selected ligand, no individual value; purified native protein; protein details: Quidel.

Sequence	selection result
GGGAGGACGAUGCGGCGUCACGAGCUUUAUGCGUUCUCUGUGGUCAGACGACUCGCCCGA [C3B 108]	selected
GGGAGGACGAUGCGGAACUCAAUGGGCCGACUUUCCGUGGUCCUCAGACGACUCGCCCGA [C3C 162]	selected
GGGAGGACGAUGCGGAACUCAAUGGGCCGACUUUUUCCGUGUCCUCAGACGACUCGCCCG [C3C 186]	selected
GGGAGGACGAUGCGGAUAACGAUUCGGCAUUCACUAACUUCUCGUCAGACGACUCGCCCGA [C3B 25]	selected
GGGAGGACGAUGCGGAACUCAAUGGGCCGACUUUUCCGUGGUCCUCAGACGACUCGCCCGA [C3c 32]	selected
GGGAGGACGAUGCGGACUCGGCAUUCACUAACUUUUGCGCUCGUCAGACGACUCGCCCGA [C3a 29c]	selected
GGGAGGACGAUGCGGAUCUGAGCCUAAAGUCAUUGUGAUCAUCCUCAGACGACUCGCCCGA [C3-A 18c]	selected
GGGAGGACGAUGCGGAACUCAAUGGGCCUACUUUUCCGUGGUCCUCAGACGACUCGCCCGA [C3C 16]	selected
GGGAGGACGAUGCGGGUGGCGAUUCCAAGUCUUCCGUGAACAUGGUCAGACGACUCGCCCG [C3-23C]	selected
GGGAGGACGAUGCGGUGGCGAUUCCAAGUCUUCCGUGAACAUCAGACGACUCGCCCGA [C3B 23]	selected
GGGAGGACGAUGCGGGCGUCUCGAGCUUUAUGCGUUCUCUGUGGUCAGACGACUCGCCCGA [c3a 9c]	selected
GGGAGGACGAUGCGGAUGACGAUUCGGCAUUCACUAACUUCUACUCAGACGACUCGCCCGA [C3C 109]	selected
GGGAGGACGAUGCGGAACUCAAUGGGCCUACUUUUUCCGUGGUCCUCAGACGACUCGCCCGA [C3c 10]	selected
GGGAGGACGAUGCGGAUGACGAUUCGGCAUUCACUAACUUCUCAUCAGACGACUCGCCCGA [C3C 155]	selected
GGGAGGACGAUGCGGAUGACGAUUCGGCAUUCACUAACUUCUCGUCAGACGACUCGCCCGA [C3c 3]	selected
GGGAGGACGAUGCGGCUUAAAGUUGUUUAUGAUCAUUCCGUACGUCAGACGACUCGCCCGA [C3c 77]	selected
GGGAGGACGAUGCGGGCGUCUCGAGCUCUAUGCGUUCUCUGUGGUCAGACGACUCGCCCGA [C3B 138]	selected
GGGAGGACGAUGCGGUGGCGAUUCCAAGUCUUCCGUGAACAUGGUCAGACGACUCGCCCGA [188]	selected
GGGAGGACGAUGCGGACGCAGGGGAUGCUCACUUUGACUUUAGGCCAGACGACUCGCCCG [30C3B149]	selected
GGGAGGACGAUGCGGAACUCAAUGGGCCGACUUUUCCGUGGUCCUCAGACGACUGCCCGA [27C3B143]	selected
GGGAGGACGAUGCGGCGUCUCGAGCUCUAUGCGUCCUCUGUGGUCAGACGACUCGCCCGA [C3B 41]	selected
GGGAGGACGAUGCGGGCGUUGGCGAUUGGUAAGUGUCGUUCUCGUCAGACGACUCGCCCGA [C3B 102]	selected
GGGAGGACGAUGCGGGCGUUGGCGAUUCCUAAGUGUCGUUCUCGUCAGACGACUCGCCCGA [C3c 35]	selected

These sequences were tested on Complement C5 (Homo sapiens) (assay: inhibition of the protein). Conditions: 2'-F pyrimidines; 2'-OMe G at position 20; hemolysis Ki lower with 2'-OMe substitution; purified native protein; protein details: Quidel; variant of B2010 (YL-13t); dose not given here.

Sequence	functional effect of the aptamer
CGCCGCGGUCUCAGGCGCUGAGUCUGAGUUUACCUGCG [B2070]	active

Same assay, conditions: 2'-F pyrimidines; 2'-OMe at positions 2,7,8,13,14,15,20,21,22,26,27,28,36,38; hemolysis Ki lower with 2'-OMe; Kd marginally better (not shown); purified native protein; protein details: Quidel; variant of B2010 (YL-13t); dose not given here

Sequence	functional effect of the aptamer
CGCCGCGGUCUCAGGCGCUGAGUCUGAGUUUACCUGCG [M6040]	active
